Results from PubChem BioAssay AID504444 (National Center for Advancing Translational Sciences (NCATS), 2011).
“And” between values parts separate entries of the source, which are not always exact repeats. Identical values can stand only once. Hit rate of the full screen: of about 360,000 compounds, about 7,500 (2.1%) were called active. This list was built around the results that the source calls inconclusive (neither active nor inactive); the mix of calls is not that of the screen. Calls come from the whole dose curve; as a rule, active = well fitted inhibition curve with a large enough effect; inconclusive = small, poorly fitted or top-dose-only effect, or effect the other way; inactive = flat fitted curve, though single readings scatter. Where the call is inconclusive, the potency comes from a doubtful curve fit.

Assay: Nrf2 qHTS screen for inhibitors; note: nearly all actives have a fitted effect of over 60% in size
Conditions: A549 ARE-Fluc reporter, luciferase luminescence, 18-24 h; activity change, negative = inhibition: at 46 µM (top of the series)
How it was run: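 Cells were seeded and rested 2 h, then exposed to compounds for 18-24 h. CellTiter-Fluor was read first as a viability measure. BugLite was added 15 min before the final luminescent read of ARE-luciferase activity in A549 cells.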
% is set by controls: 0 for no effect and ±100 for the full control effect; potency is the fitted concentration of half-maximal effect.

Compound | Potency | activity change, negative = inhibition
COc1ccccc1CCNC(=O)c1nc(-c2cccs2)no1 | inconclusive: 29.1 µM [activator, single point] | –
COc1ccc(S(=O)(=O)N2CCCCC2)cc1NC(=O)CN(C)C1CCCCC1 | inconclusive: 32.6 µM [falling, single point] | –
O=C(c1ccc2c(c1)N(Cc1ccccc1F)C(=O)c1ccccc1S2=O)N1CCCCC1 (stereo unspecified) | inconclusive: 23.1 µM [falling, single point] | –
COc1ccc(S(=O)(=O)N/N=C\c2ccc(OC)c(COc3ccc(C)cc3[N+](=O)[O-])c2)cc1 | – | inactive: -12.6%
COc1cc2cc(C)nc(Cc3cccc4ccccc34)c2cc1OC | inconclusive: 29.1 µM [falling, single point] | –
Cc1ccnc(NC(=O)CCNS(=O)(=O)c2ccc(C)c(C)c2)c1 | inconclusive: 4.61 µM [activator, partial curve] | –
c1cc(CN2CCCCC2)cc(OCCCNc2nc3ccccc3s2)c1 | – | inactive: 10.3%
Cc1ccn(CC(C)C(=O)O)n1 (stereo unspecified) | – | inactive: -0.502%
c1ccc(CNc2nnnn2-c2ccccc2)cc1 | inconclusive: 16.4 µM [falling, partial curve, poor fit] | –
O=c1c2c(-c3ccccc3)csc2ncn1/N=C/c1ccc(O)c([N+](=O)[O-])c1 | inconclusive: 32.6 µM [falling, partial curve, poor fit] | –
Cc1onc(-c2ccccc2)c1C(=O)N/N=C/c1cn(C)c2ccccc12 | inconclusive: 29.1 µM [falling, single point] | –
O=C(N/N=C/C(Cl)=C\c1ccccc1)c1cccs1 | inconclusive: 13 µM [activator, partial curve] | –
CCOCCCNC(=O)c1[nH]c2cc(OC)ccc2c1Sc1ccccc1 | active: 25.9 µM | –
COc1ccc(OC)c(-c2csc(NC(=O)CSCc3c(C)noc3C)n2)c1 | inconclusive: 11.6 µM [falling, partial curve] | –
CCOc1ccc(/C=N/n2c(-c3ccccc3)n[nH]c2=S)cc1 | inconclusive: 16.4 µM [falling, partial curve, poor fit] | –
COc1cccc(CN2CC(C(=O)NCC3CCOCC3)CCC2=O)c1 (stereo unspecified) | – | inactive: 7.32%
CN=C1S/C(=C\c2ccc(N3CCCC3)c(F)c2)C(=O)N1C | inconclusive: 23.1 µM [activator, partial curve] | –
COc1cc2cc(CCOC(=O)c3ccc(C(F)(F)F)cc3)oc(=O)c2cc1OC | – | inactive: -22.5%
COc1cc2c(cc1OC)C(c1cc3cc(OC)c(OC)cc3[nH]c1=O)N(C(=O)C1CC1)CC2 (stereo unspecified) | – | inactive: 5.22%
Cc1ccc(C(=O)Nc2nnc(NC(=S)Nc3ccccc3)s2)cc1 | inconclusive: 29.1 µM [falling, single point] | –
CC(=O)Nc1nc(C)c(-c2csc(Nc3ccccn3)n2)s1 | inconclusive: 1.64 µM [activator, partial curve, poor fit] and inconclusive: 3.26 µM [activator, full curve] | –
Cc1cc(C(=O)COC(=O)c2cccc(O)c2)c(C)n1C1CC1 | active: 13 µM | –

Compound | Potency | activity change, negative = inhibition
COc1ccc(NC(=O)CSc2nnc(-c3ccc(C)cc3)n2N)cc1 | inconclusive: 2.31 µM [activator, full curve, poor fit] | –
Cc1ccc(C)c(OCC(=O)Nc2nc3ccc([N+](=O)[O-])cc3s2)c1C | inconclusive: 29.1 µM [falling, single point] | –
C(/C=C/C=C/Nc1ccccc1)=Nc1ccccc1 | inconclusive: 29.1 µM [falling, single point] | –
COc1cc(NC(=O)CSc2nc3c(c(=O)[nH]2)CCCC3)cc(OC)c1OC | inconclusive: 25.9 µM [falling, single point] | –
CC(=O)c1ccc(S(=O)(=O)Nc2ccc(Cl)c(S(=O)(=O)N3CCCC3)c2)cc1 | inconclusive: 20.6 µM [falling, partial curve, poor fit] | –
CCCn1nc(NC(=O)c2cccs2)c2cc3cc(OC)ccc3nc21 | – | inactive: -0.741%
Cc1c(C(=O)OCC(=O)N(C)C2CCS(=O)(=O)C2)oc2ccc(Br)cc12 (stereo unspecified) | – | inactive: -13.2%
CS(=O)(=O)N1CCN(c2ccc(NC(=O)c3ccc([N+](=O)[O-])o3)cc2)CC1 | – | inactive: -8.82%
COc1cccc(Nc2ncc(C#N)c(N)n2)c1 | inconclusive: 29.1 µM [falling, single point] | –
O=C(NC1CC1)c1ccc(Cn2c(SCc3ccccc3F)nc3cccnc32)cc1 | inconclusive: 9.2 µM [activator, partial curve, poor fit] | –
N#Cc1nc(-c2cccs2)oc1NCc1ccccc1Cl | inconclusive: 13 µM [falling, partial curve, poor fit] | –
CC1CCC(NC(=O)CNC(=O)c2ccc3ccccc3c2)CC1 (stereo unspecified) | inconclusive: 9.2 µM [activator, partial curve] | –
Cc1cc(C)cc(NC(=O)C(=O)NCC2CCCN2S(=O)(=O)c2cccs2)c1 (stereo unspecified) | inconclusive: 20.6 µM [falling, partial curve, poor fit] | –
O=C(C1CCN(S(=O)(=O)c2ccccc2)CC1)N(CCc1ccccc1)Cc1ccco1 | inconclusive: 29.1 µM [falling, single point] | –
N#CC1(NC(=O)Cn2ncc(Cl)c(Cl)c2=O)CCCCC1 | – | inactive: -15.5%
CC(C)Sc1nc(N2CCOCC2)c2c3c(sc2n1)COC(C)(C)C3 | active: 14.6 µM | –
CCCCCn1c(CCNC(=O)CCC)nc2ccccc21 | inconclusive: 32.6 µM [falling, single point] | –
COCCn1c(SCC(=O)c2c(N)n(C)c(=O)n(C)c2=O)nc2ccccc21 | inconclusive: 0.731 µM [activator, full curve, poor fit] | –
CN(C)c1cccc(C(=O)n2cc(C(=O)c3cc(F)ccc3O)cn2)c1 | – | inactive: 13%
O=C(OCc1nnc(-c2ccccc2)o1)c1cccnc1Cl | inconclusive: 25.9 µM [activator, partial curve, poor fit] | –
Cc1cc(C)c2[nH]c(=O)c(CN(Cc3nnnn3C3CCCC3)C3CCCCC3)cc2c1 | – | inactive: 3.96%
COc1ccc(OC)c(C2C(C(=O)c3cc4ccccc4o3)=C(O)C(=O)N2c2cc(C)on2)c1 (stereo unspecified) | inconclusive: 13 µM [falling, partial curve, poor fit] | –

Compound | Potency | activity change, negative = inhibition
Cc1cccc(C)c1OCc1cc(C(=O)N(Cc2c(C)nn(C)c2C)C2CC2)no1 | active: 23.1 µM | –
CSc1cccc(NC(=O)c2cc(S(=O)(=O)N3CCc4ccccc43)cn2C)c1 | inconclusive: 23.1 µM [falling, partial curve] | –
CCC(C)N(C(=O)c1csnn1)C(C(=O)NC1CCCC1)c1ccccc1F (stereo unspecified) | inconclusive: 29.1 µM [activator, partial curve, poor fit] | –
COc1c(Br)cc(Br)cc1/C=C1/C(=O)N=C(N)N1C | inconclusive: 16.4 µM [falling, partial curve, poor fit] | –
CC(C)c1ccc(NC2CCCN(C(=O)c3ccc(Cn4cnnn4)cc3)C2)cc1 (stereo unspecified) | inconclusive: 20.6 µM [falling, single point] | –
COc1ccc(NC(=O)Cn2c(=O)n(CCC(=O)NCCc3ccc(OC)c(OC)c3)c(=O)c3ccccc32)cc1Cl | – | inactive: 18.8%
CCN1CCc2c(sc3c2c(NCc2ccco2)nc2nnnn23)C1 | inconclusive: 29.1 µM [activator, single point] | –
CC1(CCC(=O)N2CCCC(N3CCN(c4cccc(C(F)(F)F)c4)CC3)C2)CC1 (stereo unspecified) | inconclusive: 29.1 µM [falling, single point] | –
CCC1Nc2ncnc(N3CCOCC3)c2N(Cc2ccccc2)C1=O (stereo unspecified) | inconclusive: 4.11 µM [falling, single point] | –
Cc1ccc(C)c(N=C2CCCN2Cc2ccccc2)c1C#N | inconclusive: 20.6 µM [falling, single point] | –
O=C(Nc1ccc(Cl)c(Cl)c1)C1CCN(C(=O)c2ccco2)CC1 | inconclusive: 29.1 µM [falling, single point] | –
COc1ccc(N2CCN(CC(O)COc3ccc(C(C)C)c(C)c3)CC2)cc1 (stereo unspecified) | – | inactive: -24.6%
Cc1ccc(NC(=O)/C=C/c2ccco2)cc1S(=O)(=O)N1CCCCCC1 | inconclusive: 16.4 µM [falling, single point] | –
Cc1csc(NC(=O)CSc2nc3ccccc3c(=O)[nH]2)n1 | inconclusive: 2.31 µM [activator, partial curve, poor fit] | –
COCc1nnc(NC(=O)c2ccc(S(=O)(=O)N(C)c3ccccc3)cc2)o1 | inconclusive: 29.1 µM [falling, single point] | –
O=C(Nc1ccc(N2CCCC2)cc1)c1cccc(F)c1 | inconclusive: 0.092 µM [activator, full curve, poor fit] | –
O=C(NCC(c1ccco1)N1CCN(c2ccccc2)CC1)C(=O)NC1CCCC1 (stereo unspecified) | – | inactive: -33.3%
COc1ccc(C2CC(C(F)(F)F)n3nc(C(=O)NCCN4CCOCC4)cc3N2)cc1 (stereo unspecified) | – | inactive: -19.9%
Cn1c(=O)c2c(nc(NCCO)n2CCCc2ccccc2)n(C)c1=O | active: 20.6 µM | –
COc1cccc(NC(=O)Cn2nc3c4ccccc4n(Cc4cccc(F)c4)cc-3c2=O)c1 | inconclusive: 29.1 µM [falling, single point] | –
CC(C)=CCC/C(C)=C/CNC(=O)C[C@H]1C[C@H](C(=O)N2CCOCC2)[C@@]2(C)c3[nH]c4ccc(Cl)cc4c3CCN2C1=O | inconclusive: 29.1 µM [falling, single point] | –
Cc1nn(CCC(=O)NCc2ccc(N(C)C)cc2)c(=O)c2nn(-c3ccccc3)c(C)c12 | inconclusive: 23.1 µM [falling, single point] | –
